Results on two substances are retold here after paper PMC8326510.

Protein sequences, listed by entry. Tags and fused reporters are not part of them. Residues count along the entry.
UniProt P37173, residues 23-567: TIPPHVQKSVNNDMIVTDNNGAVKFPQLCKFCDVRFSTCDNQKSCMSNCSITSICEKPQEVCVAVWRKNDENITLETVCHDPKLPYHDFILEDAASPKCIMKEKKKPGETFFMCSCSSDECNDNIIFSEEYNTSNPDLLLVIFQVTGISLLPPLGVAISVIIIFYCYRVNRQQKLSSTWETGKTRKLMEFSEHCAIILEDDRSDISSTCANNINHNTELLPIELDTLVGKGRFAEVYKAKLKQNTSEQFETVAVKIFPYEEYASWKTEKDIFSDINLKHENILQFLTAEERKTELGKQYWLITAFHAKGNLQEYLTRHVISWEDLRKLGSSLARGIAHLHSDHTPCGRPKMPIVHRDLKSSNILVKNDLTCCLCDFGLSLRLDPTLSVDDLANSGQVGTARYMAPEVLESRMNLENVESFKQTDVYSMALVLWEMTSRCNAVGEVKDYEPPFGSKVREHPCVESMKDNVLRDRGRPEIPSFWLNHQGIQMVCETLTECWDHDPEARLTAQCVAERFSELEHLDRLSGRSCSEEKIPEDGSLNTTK
UniProt Q69ZK0: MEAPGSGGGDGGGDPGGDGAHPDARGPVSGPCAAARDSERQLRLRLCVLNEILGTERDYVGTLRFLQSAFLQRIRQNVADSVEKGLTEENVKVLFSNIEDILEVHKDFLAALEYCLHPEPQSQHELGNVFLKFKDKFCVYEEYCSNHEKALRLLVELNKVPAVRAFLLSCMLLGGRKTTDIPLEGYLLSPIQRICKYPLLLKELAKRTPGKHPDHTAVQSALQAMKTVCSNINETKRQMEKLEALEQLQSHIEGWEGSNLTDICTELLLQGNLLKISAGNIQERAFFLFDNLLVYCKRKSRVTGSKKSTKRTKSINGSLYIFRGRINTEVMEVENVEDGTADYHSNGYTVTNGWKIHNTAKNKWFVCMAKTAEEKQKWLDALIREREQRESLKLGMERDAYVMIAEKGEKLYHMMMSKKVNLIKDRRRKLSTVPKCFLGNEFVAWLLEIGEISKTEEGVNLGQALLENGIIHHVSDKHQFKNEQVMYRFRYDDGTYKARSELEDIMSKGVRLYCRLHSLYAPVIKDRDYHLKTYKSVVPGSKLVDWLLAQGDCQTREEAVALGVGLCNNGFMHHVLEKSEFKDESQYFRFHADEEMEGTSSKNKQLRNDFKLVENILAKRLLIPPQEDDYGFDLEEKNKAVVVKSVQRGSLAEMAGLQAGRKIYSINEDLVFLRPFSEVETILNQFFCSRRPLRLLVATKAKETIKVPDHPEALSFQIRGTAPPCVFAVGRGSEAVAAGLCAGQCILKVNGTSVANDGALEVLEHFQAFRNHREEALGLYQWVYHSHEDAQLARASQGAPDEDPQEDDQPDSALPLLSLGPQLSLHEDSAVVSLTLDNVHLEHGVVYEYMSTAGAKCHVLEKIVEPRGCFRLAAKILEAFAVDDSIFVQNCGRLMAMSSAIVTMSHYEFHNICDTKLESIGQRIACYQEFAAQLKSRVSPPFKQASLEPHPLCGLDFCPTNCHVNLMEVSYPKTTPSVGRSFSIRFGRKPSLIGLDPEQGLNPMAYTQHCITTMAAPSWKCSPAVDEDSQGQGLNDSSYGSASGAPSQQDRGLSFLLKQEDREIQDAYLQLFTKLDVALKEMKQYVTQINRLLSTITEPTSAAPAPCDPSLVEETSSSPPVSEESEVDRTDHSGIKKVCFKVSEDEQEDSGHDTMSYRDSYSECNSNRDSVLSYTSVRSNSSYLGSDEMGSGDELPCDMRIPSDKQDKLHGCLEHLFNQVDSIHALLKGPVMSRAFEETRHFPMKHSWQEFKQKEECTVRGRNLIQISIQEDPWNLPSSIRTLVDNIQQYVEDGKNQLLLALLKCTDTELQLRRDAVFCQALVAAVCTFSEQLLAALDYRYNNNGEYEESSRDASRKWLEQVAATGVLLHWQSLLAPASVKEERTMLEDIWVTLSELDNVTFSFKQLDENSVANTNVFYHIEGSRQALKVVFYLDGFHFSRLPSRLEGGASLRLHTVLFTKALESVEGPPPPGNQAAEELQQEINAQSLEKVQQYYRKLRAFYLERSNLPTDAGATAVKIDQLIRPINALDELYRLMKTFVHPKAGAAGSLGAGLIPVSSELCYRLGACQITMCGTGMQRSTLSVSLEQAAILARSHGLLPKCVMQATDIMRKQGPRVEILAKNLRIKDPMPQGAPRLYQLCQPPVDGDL
UniProt Q8TCU6: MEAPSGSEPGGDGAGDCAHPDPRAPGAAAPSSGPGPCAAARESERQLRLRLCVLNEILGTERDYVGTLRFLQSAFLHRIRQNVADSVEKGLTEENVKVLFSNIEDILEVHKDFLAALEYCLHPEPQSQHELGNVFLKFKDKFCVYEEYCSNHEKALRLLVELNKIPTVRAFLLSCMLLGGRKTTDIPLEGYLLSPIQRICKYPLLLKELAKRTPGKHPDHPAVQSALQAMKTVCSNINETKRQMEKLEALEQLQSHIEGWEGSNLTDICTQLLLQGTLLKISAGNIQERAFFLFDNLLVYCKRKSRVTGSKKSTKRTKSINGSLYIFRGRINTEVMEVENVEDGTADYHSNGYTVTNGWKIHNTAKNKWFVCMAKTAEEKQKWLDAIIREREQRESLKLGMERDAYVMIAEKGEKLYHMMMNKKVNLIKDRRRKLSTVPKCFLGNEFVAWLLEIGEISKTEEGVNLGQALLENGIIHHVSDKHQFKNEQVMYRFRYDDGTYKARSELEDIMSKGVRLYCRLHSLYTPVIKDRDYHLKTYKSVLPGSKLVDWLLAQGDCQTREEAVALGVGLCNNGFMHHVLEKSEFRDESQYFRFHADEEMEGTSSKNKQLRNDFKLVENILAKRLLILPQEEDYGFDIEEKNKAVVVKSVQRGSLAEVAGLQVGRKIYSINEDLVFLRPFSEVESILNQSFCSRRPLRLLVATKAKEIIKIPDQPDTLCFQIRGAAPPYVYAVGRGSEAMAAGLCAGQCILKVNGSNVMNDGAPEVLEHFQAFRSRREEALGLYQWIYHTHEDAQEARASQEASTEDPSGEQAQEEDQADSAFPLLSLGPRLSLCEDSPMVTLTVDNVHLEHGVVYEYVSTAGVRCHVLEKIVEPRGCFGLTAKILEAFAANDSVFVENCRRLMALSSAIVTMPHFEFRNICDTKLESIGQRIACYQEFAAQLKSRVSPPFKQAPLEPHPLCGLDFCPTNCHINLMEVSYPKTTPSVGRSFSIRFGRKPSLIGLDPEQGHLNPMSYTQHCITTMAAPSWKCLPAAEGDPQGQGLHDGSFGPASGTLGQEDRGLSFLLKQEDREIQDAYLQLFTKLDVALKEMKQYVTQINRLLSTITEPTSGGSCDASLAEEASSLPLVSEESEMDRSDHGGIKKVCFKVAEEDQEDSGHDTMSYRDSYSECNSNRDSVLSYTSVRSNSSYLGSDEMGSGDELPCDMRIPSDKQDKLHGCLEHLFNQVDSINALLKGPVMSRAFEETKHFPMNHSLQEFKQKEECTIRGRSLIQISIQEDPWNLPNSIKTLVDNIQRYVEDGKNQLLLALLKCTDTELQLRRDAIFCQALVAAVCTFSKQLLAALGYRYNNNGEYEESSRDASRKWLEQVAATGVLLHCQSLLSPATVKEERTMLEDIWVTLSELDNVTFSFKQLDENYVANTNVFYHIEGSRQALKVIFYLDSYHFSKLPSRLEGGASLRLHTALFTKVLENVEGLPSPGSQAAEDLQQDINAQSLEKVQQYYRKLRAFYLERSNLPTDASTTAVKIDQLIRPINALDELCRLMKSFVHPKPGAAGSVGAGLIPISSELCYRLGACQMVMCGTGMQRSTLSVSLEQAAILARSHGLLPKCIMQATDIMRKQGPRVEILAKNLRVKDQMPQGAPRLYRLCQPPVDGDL

The target of test [1] is T1, endogenous TGFβR2 of mouse lung fibroblasts (mouse (endogenous in mouse lung fibroblasts)) (UniProt Q62312).
T1 sequence: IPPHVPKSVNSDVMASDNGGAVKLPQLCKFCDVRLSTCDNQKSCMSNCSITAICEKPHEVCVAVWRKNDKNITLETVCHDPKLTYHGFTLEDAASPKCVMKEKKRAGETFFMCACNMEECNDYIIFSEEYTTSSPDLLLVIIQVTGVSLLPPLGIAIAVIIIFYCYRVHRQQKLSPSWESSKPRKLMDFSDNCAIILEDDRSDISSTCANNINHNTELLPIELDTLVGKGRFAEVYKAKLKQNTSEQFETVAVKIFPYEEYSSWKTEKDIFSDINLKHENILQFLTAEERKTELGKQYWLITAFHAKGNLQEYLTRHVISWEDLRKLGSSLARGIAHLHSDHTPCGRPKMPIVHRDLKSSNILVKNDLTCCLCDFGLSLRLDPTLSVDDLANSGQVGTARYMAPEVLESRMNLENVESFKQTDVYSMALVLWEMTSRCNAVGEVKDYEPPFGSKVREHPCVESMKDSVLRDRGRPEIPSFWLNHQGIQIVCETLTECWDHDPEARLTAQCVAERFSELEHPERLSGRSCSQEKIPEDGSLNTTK
As to the kind of experiment: co-IP; endogenous co-IP: mouse lung fibroblasts stimulated with TGF-β1 (10 ng/ml) or buffer control for a total of 2 h; immunoprecipitation with anti-TGFβR2 antibody and Protein A/G PLUS-Agarose overnight at 4°C, Western blot for P-Rex1.

The target of test [2] is GFP-tagged TGFβR2 (UniProt P37173). Briefly: co-IP; heterologous co-IP: 293T cells co-transfected with AU5-P-Rex1 and TGFβR2-GFP (or vector/GFP), lysed in RIPA buffer 48 h after transfection; immunoprecipitation with anti-AU5 or anti-GFP antibody and Protein A/G PLUS-Agarose overnight at 4°C, five washes, Western blot.

These are yes or no findings as the source states them, for the method shown. Binding seen in cells or lysates may run through a third protein. Some entries that bind do so weakly or less than the wild type.

As to “endogenous P-Rex1 of mouse lung fibroblasts (from UniProt Q69ZK0 1-1650)”, the binding entry in test [1] is listed as “binds”.

Take “AU5-tagged human P-Rex1 (from UniProt Q8TCU6 1-1659)”: the binding result in test [2] is listed as “binds”.
